Reference: publication PMC10011557

Key:
Myc-AMPK = assay: co-IP; Flag-SAPS3 and Myc-AMPK co-expressed in 293T; lysates immunoprecipitated with anti-Myc or anti-Flag beads, Western blotting
Flag-tagged AMPKα2 [1] = assay: co-IP; Flag-AMPK overexpressed in 293T; glucose deprivation or addback 1 h; anti-Flag beads, Western blotting for endogenous SAPS3 and PP6C
Flag-tagged AMPKα2 [2] = assay: condition: only glucose addback for 3 h after glucose deprivation; co-IP; Flag-AMPK overexpressed in 293T; glucose deprivation followed by glucose addback for 3 h; anti-Flag beads, Western blotting
[3] = target: His-AMPK (recombinant, unphosphorylated); assay: pull-down; 3 μg of each recombinant protein mixed, 37 °C 1 h in 25 mM Tris pH 8.0, 150 mM NaCl, 2 mM DTT, 1 mg/ml BSA; His-AMPK or His-pAMPK held on nickel affinity beads, Western blotting; both purified

B1: Flag-SAPS3 (protein, UniProt Q5H9R7 1-873)
chain: MFWKFDLHSSSHIDTLLEREDVTLKELMDEEDVLQECKAQNRKLIEFLLKAECLEDLVSFIIEEPPQDMDEKIRYKYPNISCELLTSDVSQMNDRLGEDESLLMKLYSFLLNDSPLNPLLASFFSKVLSILISRKPEQIVDFLKKKHDFVDLIIKHIGTSAIMDLLLRLLTCIEPPQPRQDVLNWLNEEKIIQRLVEIVHPSQEEDRHSNASQSLCEIVRLSRDQMLQIQNSTEPDPLLATLEKQEIIEQLLSNIFHKEKNESAIVSAIQILLTLLETRRPTFEGHIEICPPGMSHSACSVNKSVLEAIRGRLGSFHELLLEPPKKSVMKTTWGVLDPPVGNTRLNVIRLISSLLQTNTSSINGDLMELNSIGVILNMFFKYTWNNFLHTQVEICIALILASPFENTENATITDQDSTGDNLLLKHLFQKCQLIERILEAWEMNEKKQAEGGRRHGYMGHLTRIANCIVHSTDKGPNSALVQQLIKDLPDEVRERWETFCTSSLGETNKRNTVDLVTTCHIHSSSDDEIDFKETGFSQDSSLQQAFSDYQMQQMTSNFIDQFGFNDEKFADQDDIGNVSFDRVSDINFTLNTNESGNIALFEACCKERIQQFDDGGSDEEDIWEEKHIAFTPESQRRSSSGSTDSEESTDSEEEDGAKQDLFEPSSANTEDKMEVDLSEPPNWSANFDVPMETTHGAPLDSVGSDVWSTEEPMPTKETGWASFSEFTSSLSTKDSLRSNSPVEMETSTEPMDPLTPSAAALAVQPEAAGSVAMEASSDGEEDAESTDKVTETVMNGGMKETLSLTVDAKTETAVFKSEEGKLSTSQDAACKDAEECPETAEAKCAAPRPPSSSPEQRTGQPSAPGDTSVNGPV
binding (Myc-AMPK): binds

B2: serine/threonine-protein phosphatase 6 regulatory subunit 3, SAPS3 (endogenous, 293T) (protein, UniProt Q5H9R7 1-873)
chain: MFWKFDLHSSSHIDTLLEREDVTLKELMDEEDVLQECKAQNRKLIEFLLKAECLEDLVSFIIEEPPQDMDEKIRYKYPNISCELLTSDVSQMNDRLGEDESLLMKLYSFLLNDSPLNPLLASFFSKVLSILISRKPEQIVDFLKKKHDFVDLIIKHIGTSAIMDLLLRLLTCIEPPQPRQDVLNWLNEEKIIQRLVEIVHPSQEEDRHSNASQSLCEIVRLSRDQMLQIQNSTEPDPLLATLEKQEIIEQLLSNIFHKEKNESAIVSAIQILLTLLETRRPTFEGHIEICPPGMSHSACSVNKSVLEAIRGRLGSFHELLLEPPKKSVMKTTWGVLDPPVGNTRLNVIRLISSLLQTNTSSINGDLMELNSIGVILNMFFKYTWNNFLHTQVEICIALILASPFENTENATITDQDSTGDNLLLKHLFQKCQLIERILEAWEMNEKKQAEGGRRHGYMGHLTRIANCIVHSTDKGPNSALVQQLIKDLPDEVRERWETFCTSSLGETNKRNTVDLVTTCHIHSSSDDEIDFKETGFSQDSSLQQAFSDYQMQQMTSNFIDQFGFNDEKFADQDDIGNVSFDRVSDINFTLNTNESGNIALFEACCKERIQQFDDGGSDEEDIWEEKHIAFTPESQRRSSSGSTDSEESTDSEEEDGAKQDLFEPSSANTEDKMEVDLSEPPNWSANFDVPMETTHGAPLDSVGSDVWSTEEPMPTKETGWASFSEFTSSLSTKDSLRSNSPVEMETSTEPMDPLTPSAAALAVQPEAAGSVAMEASSDGEEDAESTDKVTETVMNGGMKETLSLTVDAKTETAVFKSEEGKLSTSQDAACKDAEECPETAEAKCAAPRPPSSSPEQRTGQPSAPGDTSVNGPV
binding (Flag-tagged AMPKα2 [1]): binds
binding (Flag-tagged AMPKα2 [2]): no binding

B3: recombinant Myc-PPP6R3 protein (protein, UniProt Q5H9R7 1-873)
chain: MFWKFDLHSSSHIDTLLEREDVTLKELMDEEDVLQECKAQNRKLIEFLLKAECLEDLVSFIIEEPPQDMDEKIRYKYPNISCELLTSDVSQMNDRLGEDESLLMKLYSFLLNDSPLNPLLASFFSKVLSILISRKPEQIVDFLKKKHDFVDLIIKHIGTSAIMDLLLRLLTCIEPPQPRQDVLNWLNEEKIIQRLVEIVHPSQEEDRHSNASQSLCEIVRLSRDQMLQIQNSTEPDPLLATLEKQEIIEQLLSNIFHKEKNESAIVSAIQILLTLLETRRPTFEGHIEICPPGMSHSACSVNKSVLEAIRGRLGSFHELLLEPPKKSVMKTTWGVLDPPVGNTRLNVIRLISSLLQTNTSSINGDLMELNSIGVILNMFFKYTWNNFLHTQVEICIALILASPFENTENATITDQDSTGDNLLLKHLFQKCQLIERILEAWEMNEKKQAEGGRRHGYMGHLTRIANCIVHSTDKGPNSALVQQLIKDLPDEVRERWETFCTSSLGETNKRNTVDLVTTCHIHSSSDDEIDFKETGFSQDSSLQQAFSDYQMQQMTSNFIDQFGFNDEKFADQDDIGNVSFDRVSDINFTLNTNESGNIALFEACCKERIQQFDDGGSDEEDIWEEKHIAFTPESQRRSSSGSTDSEESTDSEEEDGAKQDLFEPSSANTEDKMEVDLSEPPNWSANFDVPMETTHGAPLDSVGSDVWSTEEPMPTKETGWASFSEFTSSLSTKDSLRSNSPVEMETSTEPMDPLTPSAAALAVQPEAAGSVAMEASSDGEEDAESTDKVTETVMNGGMKETLSLTVDAKTETAVFKSEEGKLSTSQDAACKDAEECPETAEAKCAAPRPPSSSPEQRTGQPSAPGDTSVNGPV
binding [3]: binds

Results are given in words; binding and its absence hold for the method and conditions named. For some of these results: A result given as binding can be weak or reduced; the word gives no strength. For some of these results: Sequences can lack the tags named with a protein. For some of these results: In cells and extracts the contact can be indirect.
